Entries after “also recorded” stand apart in the source; their conditions may differ. At least one structure is not confirmed: it was looked up by name or label, or the drawing left a doubt.
Assays:
Assay type in all cases: cell-based
[1] = tested on: primary adult rat ventricular cardiomyocytes; test: DNA synthesis (BrdU uptake, immunofluorescence) in primary adult rat ventricular cardiomyocytes; settings: differentiated cardiomyocytes; PD98059 1 mM, U0126 10 mM, LY294002 10 mM, SH-6 10 mM, Akt1/2 inhibitor 1 mM [sic]
Text: Primary neonatal rat ventricular cardiomyocytes were isolated using the Neomyts kit (Cellutron, Highland Park, N.J.), seeded at a density of 10^5 cells/cm^2 onto gelatin-coated cover slips, stimulated for 3 days, and labeled with BrdU for the terminal 2 days. Primary adult ventricular cardiomyocytes were isolated from male (300 gm) Wistar rats (Charles River Laboratories) and maintained as described (Engel, F. B. et al. p38 MAP kinase inhibition enables proliferation of adult mammalian cardiomyocytes. Genes Dev 19, 1175-87 (2005)). Adult cardiomyocytes were stimulated daily for 9 days and labeled with 30 μM BrdU for the terminal 3 days. Cardiomyocytes were stimulated with periostin (500 ng/mL) and FGF (100 ng/mL). […] The vehicle used to dissolve factors or chemicals was added to unstimulated samples, which were then processed together with the test samples. DNA-synthesis was analyzed by visualization of BrdU uptake and cytokinesis was determined by detection of the cleavage furrow and the midbody with an antibody against aurora B kinase as described (Engel, F. B. et al. p38 MAP kinase inhibition enables proliferation of adult mammalian cardiomyocytes. Genes Dev 19, 1175-87 (2005)). […] For quantification, differentiated cardiomyocytes were defined as striated rod-shaped structures with length/width ratio>1.5.

[2] = tested on: primary neonatal rat ventricular cardiomyocytes; test: DNA synthesis, mitosis and cytokinesis in primary neonatal rat ventricular cardiomyocytes; settings: U0126 10 μM, PD98059 1 μM, LY294002 10 μM, Wortmannin 0.1 μM
Text: Primary neonatal rat ventricular cardiomyocytes were isolated using the Neomyts kit (Cellutron, Highland Park, N.J.), seeded at a density of 10^5 cells/cm^2 onto gelatin-coated cover slips, stimulated for 3 days, and labeled with BrdU for the terminal 2 days. Primary adult ventricular cardiomyocytes were isolated from male (300 gm) Wistar rats (Charles River Laboratories) and maintained as described (Engel, F. B. et al. p38 MAP kinase inhibition enables proliferation of adult mammalian cardiomyocytes. Genes Dev 19, 1175-87 (2005)). Adult cardiomyocytes were stimulated daily for 9 days and labeled with 30 μM BrdU for the terminal 3 days. Cardiomyocytes were stimulated with periostin (500 ng/mL) and FGF (100 ng/mL). Inhibiting antibodies were added at a concentration of 10 μg/mL, cRGD at 10 μM, U0126 at 10 μM, PD98059 at 1 μM, LY294002 at 10 μM, and Wortmannin at 0.1 μM 30 min prior to stimulation. The vehicle used to dissolve factors or chemicals was added to unstimulated samples, which were then processed together with the test samples.
DNA-synthesis was analyzed by visualization of BrdU uptake and cytokinesis was determined by detection of the cleavage furrow and the midbody with an antibody against aurora B kinase as described (Engel, F. B. et al. p38 MAP kinase inhibition enables proliferation of adult mammalian cardiomyocytes. Genes Dev 19, 1175-87 (2005)). Signals were visualized with secondary antibodies conjugated to Alexa 488, Alexa 546, Alexa 594, and Alexa 647 (Invitrogen). Nuclei were visualized with 4′,6′-diamidino-2-phenylindole (DAPI, Invitrogen). For image acquisition, the value for γ was set at 1 and the lookup table settings were linear.

[3] = tested on: primary neonatal rat ventricular cardiomyocytes; test: Cardiomyocyte proliferation by cell count (hemocytometer); settings: U0126 10 μM, PD98059 1 μM, LY294002 10 μM, Wortmannin 0.1 μM

SMILES	inhibition of periostin-induced DNA synthesis / cell-cycle reentry by kinase inhibitors [1]	inhibition of periostin-stimulated DNA synthesis by ERK and PI3-kinase inhibitors [2]	inhibition of periostin-stimulated cytokinesis by ERK and PI3-kinase inhibitors [2]	inhibition of periostin-stimulated proliferation by ERK and PI3-kinase inhibitors [3]
O=c1cc(N2CCOCC2)oc2c(-c3ccccc3)cccc12 [LY294002]	fully inhibited; also recorded: reduced	inhibited only by blocking Akt activation	inhibited	inhibited
COC[C@H]1OC(=O)c2coc3c2[C@@]1(C)C1=C(C3=O)[C@@H]2CCC(=O)[C@@]2(C)C[C@H]1OC(C)=O [Wortmannin]	–	–	inhibited	inhibited
